“Also recorded” adds a separate entry of the source.
Columns and labels:
[1] = Reduction potential and equilibrium constant for reduction of ME^ox by the dithiol; assay type: physicochemical; details: mercaptoethanol disulfide or glutathione disulfide (6 mM, 1.5-fold excess)
Protocol: We used the equilibrium constant between meso-DTA and DTT to determine the values of ε° and K(ME) of meso-DTA.
After 4 h, a ^1 H NMR spectrum was obtained.

Odor = details: for odor of the oxidized form: oxidized form containing a disulfide group (in parentheses); for odor: reduced (dithiol) form

| Compound | extent of reduction of noncyclic disulfides by 1H NMR [1] | odor of the oxidized form (Odor) | odor (Odor) |
| --- | --- | --- | --- |
| CN(C)C(=O)[C@H](S)CC[C@H](S)C(=O)N(C)C [meso-DTA, meso-2,5-Dimercapto-N,N,N',N'-tetramethyladipamide] | oxidized completely; also recorded: completely reduces | none | weak |
| O[C@H](CS)[C@H](O)CS (racemic) [DTT, dithiothreitol, reference compound] | – | none | weak |
| CN(C(=O)CS)N(C)C(=O)CS [DMH, N,N'-dimethyl-N,N'-bis(mercaptoacetyl) hydrazine, reference compound] | – | none | weak |
